These results are taken from PubChem BioAssay AID248 (DTP/NCI, 2004).

Each structure is given as a SMILES string. The list is a part of this screen's results and no random one: it is rich in T/C values a quarter to a half above the control, in often repeated tests (any T/C) and in doses without a T/C. Further doses and runs are listed elsewhere. T/C gives the treated animals as a percentage of the vehicle group. Some doses have a count of surviving animals in place of a T/C: the source holds a T/C of zero for them, seemingly a mark for toxic or unscored doses. Some survivor counts are full or nearly so, which does not show that the dose was tolerated: survival well below the control is almost never listed, so the zero probably covers shortened survival too. Counts of survivors are from the toxicity check (mostly the fifth day) where no day follows; animals may have died later. Schedules are NCI's codes, read here as Q, the interval in days (D) or hours (H), X, the number of doses. Marks such as (2×) give the number of equal values in this list. Some doses were run more than once; the results are listed from low to high. Some schedule codes hold Z or #, which are not explained here. For survival time, the PubChem record calls one and a half times the control and up active, and a quarter to a half above the control has no call in these data; cut-offs in other NCI protocols can differ. Some T/C values are followed by the survivors on the day toxicity was checked, most often the fifth; where none is given, no animal had died by that day.

The test deals with L1210 leukemia ip in BDF1 mice, survival T/C. Put plainly: NCI In Vivo Anticancer Drug Screen. Data for tumor model L1210 Leukemia (intraperitoneal) in B6D2F1 (BDF1) mice. The following applies: T/C endpoint: mean survival time, higher T/C = longer survival.
The mark [1] stands for this setting: dose: 100.0 mg/kg/injection, schedule: Q01DX001 (ip), vehicle: saline.
The mark [2] stands for this setting: dose: 200.0 mg/kg/injection, schedule: Q01DX001 (ip), vehicle: saline.
[3] abbreviates: dose: 400.0 mg/kg/injection, schedule: Q01DX001 (ip), vehicle: saline.
The mark [4] stands for this setting: dose: 100.0 mg/kg/injection, schedule: Q04DX002 (ip), vehicle: Klucel (hydroxypropylcellulose) (HPC).
[5] abbreviates: dose: 200.0 mg/kg/injection, schedule: Q04DX002 (ip), vehicle: Klucel (hydroxypropylcellulose) (HPC).
Where [6] appears, read: dose: 400.0 mg/kg/injection, schedule: Q04DX002 (ip), vehicle: Klucel (hydroxypropylcellulose) (HPC).
The mark [7] stands for this setting: dose: 100.0 mg/kg/injection, schedule: Q04DX002 (ip), vehicle: saline.
Setting [8] is: dose: 200.0 mg/kg/injection, schedule: Q04DX002 (ip), vehicle: saline.

For the compound `CN(CCOS(C)(=O)=O)CCOS(C)(=O)=O`, the T/C was 125 % of control (dose: 0.06 mg/kg/injection, schedule: Q01DX009 (ip), vehicle: saline); 132 % of control (dose: 0.09 mg/kg/injection, schedule: Q01DX009 (ip), vehicle: saline); 132 % of control (dose: 0.11 mg/kg/injection, schedule: Q01DX009 (ip), vehicle: saline); 145 % of control (dose: 0.13 mg/kg/injection, schedule: Q01DX009 (ip), vehicle: saline); 133 and 134 % of control (dose: 0.19 mg/kg/injection, schedule: Q01DX009 (ip), vehicle: saline); 140 % of control (dose: 0.2 mg/kg/injection, schedule: Q01DX009 (ip), vehicle: saline). In addition, the T/C reads like this: (dose: 0.29 mg/kg/injection, schedule: Q01DX009 (ip), vehicle: saline) 139 % of control; (dose: 0.4 mg/kg/injection, schedule: Q01DX009 (ip), vehicle: saline, evaluated on day 30) 127 % of control; (dose: 0.4 mg/kg/injection, schedule: Q01DX009 (ip), vehicle: saline, run until all animals had died) 131 % of control; (dose: 0.44 mg/kg/injection, schedule: Q01DX009 (ip), vehicle: saline) 130 % of control; (dose: 0.6 mg/kg/injection, schedule: Q01DX001 (ip), vehicle: saline) 140 % of control; (dose: 0.6 mg/kg/injection, schedule: Q01DX009 (ip), vehicle: saline) 127 % of control. Also, the T/C reads like this: (dose: 0.66 mg/kg/injection, schedule: Q01DX001 (ip), vehicle: saline, evaluated on day 30) 143 % of control; (dose: 0.66 mg/kg/injection, schedule: Q01DX001 (ip), vehicle: saline, run until all animals had died) 132 % of control; (dose: 0.8 mg/kg/injection, schedule: Q01DX009 (ip), vehicle: saline) 129 % of control; (dose: 1.0 mg/kg/injection, schedule: Q01DX001 (ip), vehicle: saline, evaluated on day 30) 127 and 143 % of control; (dose: 1.0 mg/kg/injection, schedule: Q01DX001 (ip), vehicle: saline, run until all animals had died) 132 % of control; (dose: 1.2 mg/kg/injection, schedule: Q01DX009 (ip), vehicle: saline) 127 % of control. In addition, the T/C by setting is: (dose: 1.5 mg/kg/injection, schedule: Q01DX001 (ip), vehicle: saline, evaluated on day 30) 123, 138, 140 % of control; (dose: 1.5 mg/kg/injection, schedule: Q01DX001 (ip), vehicle: saline, run until all animals had died) 135 % of control; (dose: 2.25 mg/kg/injection, schedule: Q01DX001 (ip), vehicle: saline, evaluated on day 30) 130 % of control; (dose: 2.25 mg/kg/injection, schedule: Q01DX001 (ip), vehicle: saline, run until all animals had died) 137 % of control; (dose: 3.0 mg/kg/injection, schedule: Q01DX001 (ip), vehicle: saline) 127 % of control [5 of 6 alive]; (dose: 88.0 micrograms/kg/injection, schedule: Q01DX009 (ip), vehicle: saline) 147 % of control. Moreover, the survivor count by setting is: (dose: 0.66 mg/kg/injection, schedule: Q01DX009 (ip), vehicle: saline) 5 of 6 and 6 of 6; (dose: 1.0 mg/kg/injection, schedule: Q01DX009 (ip), vehicle: saline) 5 of 6 and 6 of 6; (dose: 1.5 mg/kg/injection, schedule: Q01DX009 (ip), vehicle: saline) 6 of 6 (2×); (dose: 1.6 mg/kg/injection, schedule: Q01DX009 (ip), vehicle: saline) 6 of 6; (dose: 2.2 mg/kg/injection, schedule: Q01DX009 (ip), vehicle: saline) 4 of 6 and 5 of 6; (dose: 2.4 mg/kg/injection, schedule: Q01DX009 (ip), vehicle: saline) 6 of 6. Also, the survivor count is reported as 0 of 4 (dose: 12.5 mg/kg/injection, schedule: Q01DX001 (ip), vehicle: saline); 0 of 4 (dose: 25.0 mg/kg/injection, schedule: Q01DX001 (ip), vehicle: saline); 0 of 4 (dose: 50.0 mg/kg/injection, schedule: Q01DX001 (ip), vehicle: saline); 0 of 4 under setting [1]; 0 of 4 under setting [2]; 0 of 4 under setting [3].
Consider `CC12CCC(c3sc(N)c(C#N)c31)C2(C)C` (stereo not drawn), for which the survivor count reads like this: under setting [4], 1 of 3; under setting [5], 2 of 3; under setting [6], 0 of 3.
In the case of `CC/C(=N/O)c1ccc(O)cc1O`, the survivor count (dose: 400.0 mg/kg/injection, schedule: Q01DX009 (ip), vehicle: saline with Tween-80) is given as 4 of 6.
Consider `CN=C(NC)c1ccc(NC(=NC)c2ccc(C(=NC)Nc3ccc(C(=NC)NC)cc3)cc2)cc1`, for which the survivor count is, setting by setting: (dose: 10.0 mg/kg/injection, schedule: Q01DX Z (ip), vehicle: saline) 1 of 6; (dose: 15.0 mg/kg/injection, schedule: Q01DX Z (ip), vehicle: saline) 0 of 6; (dose: 22.0 mg/kg/injection, schedule: Q01DX Z (ip), vehicle: saline) 0 of 6.
Turning to `CC(C)c1nccn1Cc1ccccc1`, the T/C is, setting by setting: (dose: 50.0 mg/kg/injection, schedule: Q04DX002 (ip), vehicle: saline) 97, 100, 104, 109 % of control; under setting [7], 95, 97, 109, 145 % of control; under setting [8], 97 and 101 % of control. Also, the survivor count was 3 of 6 under setting [1]; 1 of 3 and 3 of 6 under setting [7]; 0 of 6 and 2 of 6 (dose: 100.0 mg/kg/injection, schedule: Q04DX003 (ip), vehicle: saline); 1 of 6 (dose: 125.0 mg/kg/injection, schedule: Q04DX002 (ip), vehicle: saline); 0 of 6 under setting [2]; 0 of 3 under setting [8]. Besides, the survivor count reads like this: (dose: 200.0 mg/kg/injection, schedule: Q04DX003 (ip), vehicle: saline) 0 of 6; under setting [3], 0 of 6; (dose: 400.0 mg/kg/injection, schedule: Q04DX002 (ip), vehicle: saline) 0 of 3 and 1 of 6; (dose: 400.0 mg/kg/injection, schedule: Q04DX003 (ip), vehicle: saline) 0 of 6.
On to `Clc1nc2cc(Cl)c(Cl)cc2[nH]1`, for which, under “dose: 400.0 mg/kg/injection, schedule: Q04DX003 (ip), vehicle: acetone”, the survivor count is 2 of 6.
In the case of `O=C1CCCCc2cc(O)c([N+](=O)[O-])cc21`, the survivor count (dose: 200.0 mg/kg/injection, schedule: Q01DX009 (ip), vehicle: saline with Tween-80) is listed as 3 of 3.
On to `O=C1NCN(c2ccccc2)C12CCNCC2`, for which the survivor count (dose: 200.0 mg/kg/injection, schedule: Q04DX003 (ip), vehicle: saline sonified) is reported as 0 of 6 and the survivor count (dose: 400.0 mg/kg/injection, schedule: Q04DX003 (ip), vehicle: saline sonified) was 0 of 6.
In the case of `COc1cc2ccc3c4cc5c(cc4c[n+](C)c3c2cc1OC)OCO5`, where the note is “dose: 80.0 mg/kg/injection, schedule: Q01DX009 (ip), vehicle: saline”, the T/C was 142 % of control.
As to `CN=C(Nc1ccc(N(C)C)cc1)SC`, the survivor count (dose: 300.0 mg/kg/injection, schedule: Q01DX001 (ip), vehicle: other) is given as 0 of 6.
For `CCCCC(CN)c1cccc2ccccc12` (stereo not drawn), the survivor count (dose: 100.0 mg/kg/injection, schedule: Q04DX002 (ip), vehicle: saline with Tween-80) was 1 of 3.
Turning to `COc1cccc(NC(=S)NN)c1`, the survivor count is recorded as 3 of 3 (dose: 50.0 mg/kg/injection, schedule: Q04DX002 (ip), vehicle: Klucel (hydroxypropylcellulose) (HPC)); 0 of 3 under setting [4]; 0 of 3 under setting [5]; 0 of 3 under setting [6].
For the compound `COC(=O)C(CSCSC)NC(=O)/C=C/c1ccccc1Cl` (stereo not drawn), the survivor count (dose: 100.0 mg/kg/injection, schedule: Q01DX009 (ip), vehicle: saline with Tween-80) is listed as 6 of 6.
